Assay results published in US20130196903A1 (priority 2010, published 2013).

Experiment: general procedure: Fmoc solid-phase peptide synthesis; Champion PEG-PS resin with Fmoc-Rink linker; AM-Polystyrene LL resin (100-200 mesh, Novabiochem) with modified Rink link; HBTU/DIEA; HATU/DIEA with HOBt
Details: whole synthesis, acetate salt (13, 15); for final HPLC purity: 214 nm

| Substance | final HPLC purity | isolated yield |
| --- | --- | --- |
| Ac-VALDPIDISIVLNKAKSDLEESKEWIRRSNGKLDSIGSGSG-C—NH2 | 95% | 10% |
| Ac-VALDPIDISIVLNKIKSDLEESKEWIRRSNKILDSIGSGSG-C—NH2 | 95% | 10% |
| Ac-WMEWDREINNYTSLIHSLIEESQNQQEKNEQELLGSG-C—NH2 | above 97% |  |
